This series deals with VEGF (Homo sapiens). Briefly: SELEX. The following applies: KK10 (dUgu) replaces T outside the 5' primer region, NECEEM-selected, purified recombinant protein, single-stranded DNA.

Chains of the proteins cited; added tags and fusions are not shown. Chains listed by the source or under a name are the forms on record and can include a tag or linker.
VEGF (Homo sapiens), one chain, as listed by the source: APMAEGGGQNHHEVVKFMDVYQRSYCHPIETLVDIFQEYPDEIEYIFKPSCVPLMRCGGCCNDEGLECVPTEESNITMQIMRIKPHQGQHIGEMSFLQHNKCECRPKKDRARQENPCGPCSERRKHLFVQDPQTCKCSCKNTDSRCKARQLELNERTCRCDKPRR

For at least one entry, the source does not settle the construct or the ends of the probe.

With “TCGCTCGGCAGGATCGCAAGAAGGATGATCGATAAGCGGTCTATAGAGGGTGGACGGAGCAGTGGCAGCA [KK10 VEGF aptamer SEQ 6]”, where the note is “1 mM MgCl2, 10 mM NaCl, pH 7.4”, the selection result is given as “selected”. Turning to “TCGCTCGGCAGGATCGCAAGACGTGAGAGCTTAGAATTCCCACTTGAGCTGGACGGAGCAGTGGCAGCA [KK10 VEGF aptamer SEQ 32]”, the selection result is listed as “selected”. “TCGCTCGGCAGGATCGCAAGAGAGACCACAGCTGAGTTGTATACGAGAAGTGGACGGAGCAGTGGCAGCA [KK10 VEGF aptamer SEQ 15]”: the selection result was “selected”. As to “TCGCTCGGCAGGATCGCAAGAGCGGGGTTAGTATAGTTCTGGAATGAAGTTGGACGGAGCAGTGGCAGCA [KK10 VEGF aptamer SEQ 17]”, the selection result is “selected”. For the sequence “TCGCTCGGCAGGATCGCAAGAGCGTGAGAGCTTAGAATTCCCACTTGAGCTGGACGGAGCAGTGGCAGCA [KK10 VEGF aptamer SEQ 31]”, the selection result is listed as “selected”.

In the case of “TCGCTCGGCAGGATCGCAAGATAGCATCCCACGGTTTCTAATTGCTACGCTGGACGGAGCAGTGGCAGCA [KK10 VEGF aptamer SEQ 18]”, the selection result was “selected”.

As to “TCGCTCGGCAGGATCGCAAGATCCATGTAACGGCTGTTAGCTCATAGGACTGGACGGAGCAGTGGCAGCA [KK10 VEGF aptamer SEQ 7]”, the selection result is listed as “selected”.

“TCGCTCGGCAGGATCGCAAGCCGAGACTGCGTTGTAGGGGCAAGTGGCAATGGACGGAGCAGTGGCAGCA [KK10 VEGF aptamer SEQ 12]”: the selection result is reported as “selected”. Turning to “TCGCTCGGCAGGATCGCAAGCCGCGTTTAAGGGTAAGTAGGGCATTGTCATGGACGGAGCAGTGGCAGCA [KK10 VEGF aptamer SEQ 37]”, the selection result was “selected”.

“TCGCTCGGCAGGATCGCAAGCGTGAGAAGGATGGGGGTCTGAGGTTGAGTTGGACGGAGCAGTGGCAGCA [KK10 VEGF aptamer SEQ 19]”: the selection result is recorded as “selected”. Take “TCGCTCGGCAGGATCGCAAGCGTGGATACGGTACTAAACGAAGTAACCCTTGGACGGAGCAGTGGCAGCA [KK10 VEGF aptamer SEQ 11]”: the selection result was “selected”. Take “TCGCTCGGCAGGATCGCAAGCTAGGGTGTCGGCACGAACTAACAAAACTGTGGACGGAGCAGTGGCAGCA [KK10 VEGF aptamer SEQ 24]”: the selection result was “selected”. Consider “TCGCTCGGCAGGATCGCAAGGAACCTCTACCTAGGCTACGTACTTGCGGCTGGACGGAGCAGTGGCAGCA [KK10 VEGF aptamer SEQ 14]”, for which the selection result was “selected”. Regarding “TCGCTCGGCAGGATCGCAAGGACAAGTACCTTTGCACGCGCTCACTACCTTGGACGGAGCAGTGGCAGCA [KK10 VEGF aptamer SEQ 20]”, the selection result is listed as “selected”.

Regarding “TCGCTCGGCAGGATCGCAAGGACATGTACCTTTGCACGCGCTCACTACCTTGGACGGAGCAGTGGCAGCA [KK10 VEGF aptamer SEQ 21]”, the selection result was “selected”. Consider “TCGCTCGGCAGGATCGCAAGGAGGTTCATGAAAAAATAAACGGTGGTCCATGGACGGAGCAGTGGCAGCA [KK10 VEGF aptamer SEQ 29]”, for which the selection result is recorded as “selected”. On to “TCGCTCGGCAGGATCGCAAGGAGGTTCATGAAGAAATAAACGGTGGTCCATGGACGGAGCAGTGGCAGCA [KK10 VEGF aptamer SEQ 30]”, for which the selection result was “selected”. Same read-out and setting: the result for “TCGCTCGGCAGGATCGCAAGGAGTTCATGAGGGGAAAATGTGGGGTGACCTGGACGGAGCAGTGGCAGCA [KK10 VEGF aptamer SEQ 22]” reads “selected”; that for “TCGCTCGGCAGGATCGCAAGGAGTTCATGAGGGGAAAATGTGGGGTGACTTGGACGGAGCAGTGGCAGCA [KK10 VEGF aptamer SEQ 23]”, “selected”. Regarding “TCGCTCGGCAGGATCGCAAGGGCAGTGAGTTGTTAAGTACCCACATGAAGTGGACGGAGCAGTGGCAGCA [KK10 VEGF aptamer SEQ 10]”, the selection result is “selected”. With “TCGCTCGGCAGGATCGCAAGGGCGTGACCGGTTCATTCCTTAATTTACAATGGACGGAGCAGTGGCAGCA [KK10 VEGF aptamer SEQ 13]”, the selection result is reported as “selected”. “TCGCTCGGCAGGATCGCAAGTATGGCCGGATGGCATAGGATTCTCCTTCGTGGACGGAGCAGTGGCAGCA [KK10 VEGF aptamer SEQ 26]”: the selection result is given as “selected”. Take “TCGCTCGGCAGGATCGCAAGTCAGGCGCTTGGCATGCTCGATGAGTCTGGTGGACGGAGCAGTGGCAGCA [KK10 VEGF aptamer SEQ 8]”: the selection result is recorded as “selected”. As for “TCGCTCGGCAGGATCGCAAGTCGAGTTTAAGGGTAAGTAGGGCATTGTCATGGACGGAGCAGTGGCAGCA [KK10 VEGF aptamer SEQ 40]”, the selection result is reported as “selected”. With “TCGCTCGGCAGGATCGCAAGTCGCGTTTAAGGGGAAGTAGGGCATTGTCATGGACGGAGCAGTGGCAGCA [KK10 VEGF aptamer SEQ 39]”, the selection result was “selected”. On the same count and under the same terms, for “TCGCTCGGCAGGATCGCAAGTCGCGTTTAAGGGTAAGTAGGGCATTGCCATGGACGGAGCAGTGGCAGCA [KK10 VEGF aptamer SEQ 36]” the value was “selected”; for “TCGCTCGGCAGGATCGCAAGTCGCGTTTAAGGGTAAGTAGGGCATTGTCATGGACGGAGCAGTGGCAGCA [KK10 VEGF aptamer SEQ 35]”, “selected”. With “TCGCTCGGCAGGATCGCACGAGCGTGAGAGCTTAGAATTCCCACTTGAGTTGGACGGAGCAGTGGCAGCA [KK10 VEGF aptamer SEQ 34]”, the selection result is “selected”. In the case of “TCGCTCGGCAGGATCGCACGCGTGAACTTGTATTCACGAGCGGTAACACATGGACGGAGCAGTGGCAGCA [KK10 VEGF aptamer SEQ 16]”, the selection result is “selected”.

Take “TCGCTCGGCAGGATCGCACGCTAGGGTGTCGGCACGAACTAACAAAACTGTGGACGGAGCAGTGGCAGCA [KK10 VEGF aptamer SEQ 25]”: the selection result is “selected”.

As to “TCGCTCGGCAGGATCGCACGGAGGTTCATGAAAAAATAAACGGTGGTCCATGGACGGAGCAGTGGCAGCA [KK10 VEGF aptamer SEQ 28]”, the selection result is “selected”. “TCGCTCGGCAGGATCGCACGGGCGAAGGGGAACAGATATTCTCTGATGCATGGACGGAGCAGTGGCACAA [KK10 VEGF aptamer SEQ 9]”: the selection result is “selected”. Still for that read-out and setting: for “TCGCTCGGCAGGATCGCACGTATGGCCGGATGGCATAGGATTCTCCTTCGTGGACGGAGCAGTGGCAGCA [KK10 VEGF aptamer SEQ 27]” the value was “selected”; for “TCGCTCGGCAGGATCGCACGTCGCGTTTAAGGGTAAGTAGGGCATTGTCATGGACGGAGCAGTGGCAGCA [KK10 VEGF aptamer SEQ 38]”, “selected”.

With “TCGCTCGGCAGGATCGCATGAGCGTGAGAGCTTAGAATTCCCACTTGAGCTGGACGGAGCAGTGGCAGCA [KK10 VEGF aptamer SEQ 33]”, the selection result is reported as “selected”.

Source of the values: US20160311845.
